In the experiment the test system is Acinetobacter baumannii. The following applies: Concentration 32 ug.mL-1, ASSAY_TEST Inhibition of Bacterial Growth, detection method Absorption (OD600), MEDIA CAMHB, plate type 384well, NBS, CORNING #3640, time 18 hr.

Several values for one entry are separate records, joined by “and”; a condition that tells them apart may be missing. Equal entries are not always repeated. The list shows a part of the results. Entries with a potency or affinity are not part of this list.

As for `[C-]#[N+]c1ccc(C(=O)NC(Cc2ccc(F)cc2)C(=O)NCCC)cc1` (stereo not given), the Inhibition was -0.32%.
On the same count and under the same terms, in the case of `CCCNC(=O)C(Cc1ccccc1)NC(=O)c1ccc(F)cc1` (stereo not given) it was 1.98%.
On to `Cc1ccc(C(=O)NC(Cc2ccc(F)cc2)C(=O)O)cc1` (stereo not given), for which, where the note is “32 ug/mL”, the Inhibition is 1.91% and -2.89%.
Still for that read-out and setting: in the case of `COc1cc(C(=O)N[C@@H](CC(C)C)C(=O)O)ccc1O` it was 0.13% and -2.3%; in that of `CC(C)C[C@H](NC(=O)c1cccnc1)C(N)=O`, 6.61% and -0.77%.
Turning to `CCCNC(=O)C(Cc1ccc(F)cc1)NC(=O)c1ccccc1` (stereo not given), the Inhibition is on record as -1.48%.
Same read-out and setting: in the case of `[C-]#[N+]c1ccc(C(=O)NC(CC#C)C(=O)NCCC)cc1` (stereo not given) it was 9.9%.
Consider `CCCNC(=O)C(Cc1ccccc1C)NC(=O)c1ccc(C(F)(F)F)cc1` (stereo not given), for which the Inhibition is -1.3%.
As to `NC(Cc1ccccc1F)C(=O)O.O=C(O)C(F)(F)F` (stereo not given), where the note is “32 ug/mL”, the Inhibition is -11.5% and -13.26%.
Same read-out and setting: with `NC(=O)[C@H](Cc1ccccc1)NC(=O)c1c(F)c(F)c(F)c(F)c1F` the figure was 4.52% and 4%.
In the case of `[C-]#[N+]c1ccc(C(=O)NC(Cc2ccccc2F)C(=O)NCCC)cc1` (stereo not given), the Inhibition is 0.53%.
In the case of `[C-]#[N+]c1ccc(C(=O)NC(CC)C(=O)NCCC)cc1` (stereo not given), the Inhibition was 2.58%.
Turning to `O=C(N[C@@H](Cc1ccccc1)C(=O)O)C1CCCCC1`, for the setting “32 ug/mL”, the Inhibition was -3.27% and -3.11%.
Same read-out and setting: in the case of `O=C(Cc1cccc(Br)c1)N[C@@H](Cc1ccccc1)C(=O)O` it was 6.45% and 4.92%; in that of `NC(Cc1ccccc1I)C(=O)O.O=C(O)C(F)(F)F` (stereo not given), -9.72% and 9.62%; in that of `C[C@H](NC(=O)c1ccccc1Cl)C(=O)O`, 5.48% and 7.71%.
For `CCCNC(=O)C(Cc1ccccc1)NC(=O)Cc1ccccc1` (stereo not given), the Inhibition amounted to 2.92%.
Still for that read-out and setting: in the case of `[C-]#[N+]c1ccc(C(=O)NC(Cc2ccc(C(F)(F)F)cc2)C(=O)NCCC)cc1` (stereo not given) it was 2.43%.
In the case of `CC(C)C[C@H](NC(=O)c1ccc(Cl)cc1Cl)C(N)=O`, where the note is “32 ug/mL”, the Inhibition was 2.3% and 0.99%.
On to `NC(Cc1ccc(F)cc1)C(=O)O.O=C(O)C(F)(F)F` (stereo not given), for which the Inhibition (32 ug/mL) is -4.86% and 3.33%.
Still for that read-out and setting: with `O=C(NC(CCCc1ccccc1)C(=O)O)c1cccc2ccccc12` (stereo not given) the figure was 10.36% and 5.75%; with `NC(Cc1cccc(F)c1)C(=O)O.O=C(O)C(F)(F)F` (stereo not given), -11.31% and -1.48%; with `NC(=O)[C@H](Cc1ccccc1)NC(=O)c1cccnc1`, 4.48% and 5.48%.
As for `O=C(NC(Cc1ccc(Cl)nc1)C(=O)O)c1ccccc1` (stereo not given), the Inhibition (32 ug/mL) was 10.2% and 15.94%.
With `[C-]#[N+]c1ccc(C(=O)NC(CC=C)C(=O)NCCC)cc1` (stereo not given), the Inhibition is listed as 5.4%.
As to `CC(C)[C@H](NC(=O)c1cccc(C(F)(F)F)c1)C(=O)O`, the Inhibition (32 ug/mL) was 4.73% and -4.41%.
As for `Cc1ccc(C(=O)NC(Cc2ccccc2C#N)C(=O)O)cc1` (stereo not given), the Inhibition (32 ug/mL) is 10.77% and 9.29%.
Still for that read-out and setting: in the case of `Cc1ccc(C(=O)NC(Cc2cc(F)c(F)cc2F)C(=O)O)cc1` (stereo not given) it was 2.25% and 9.27%; in that of `NC(Cc1ccc(F)c(F)c1)C(=O)O.O=C(O)C(F)(F)F` (stereo not given), -14.03% and 0.17%; in that of `NC(=O)[C@@H]1CCCN1C(=O)c1ccccn1`, 0.96% and 7.63%.

The Inhibition is the drop in the measured response relative to a control, in per cent.

These data come from ChEMBL document CHEMBL4513142, “CO-ADD screening of Indiana University - Purdue University Indianapolis (USA) compounds”.
